This passage reports binding results from paper PMC10873425.

Protein sequences, listed by entry. Tags and fused reporters are not part of them.
UniProt P37238: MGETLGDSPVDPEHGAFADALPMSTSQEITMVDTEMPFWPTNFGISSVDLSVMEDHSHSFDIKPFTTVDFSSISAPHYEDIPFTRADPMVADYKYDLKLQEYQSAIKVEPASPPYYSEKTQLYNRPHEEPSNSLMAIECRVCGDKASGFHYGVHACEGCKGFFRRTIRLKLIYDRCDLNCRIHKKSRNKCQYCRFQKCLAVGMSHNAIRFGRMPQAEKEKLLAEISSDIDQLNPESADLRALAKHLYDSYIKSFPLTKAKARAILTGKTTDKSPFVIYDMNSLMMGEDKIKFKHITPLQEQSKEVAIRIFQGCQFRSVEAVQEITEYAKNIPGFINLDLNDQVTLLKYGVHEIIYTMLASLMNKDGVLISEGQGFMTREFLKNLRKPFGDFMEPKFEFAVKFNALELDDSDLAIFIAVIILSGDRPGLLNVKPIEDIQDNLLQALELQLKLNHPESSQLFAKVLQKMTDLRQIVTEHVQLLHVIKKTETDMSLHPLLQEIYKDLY

Results are given in words; binding and its absence hold for the method and conditions named. Binding seen in cells or lysates may run through a third protein. Some binding calls cover weakened binding; strength is not graded here. Sequences can lack the tags named with a protein.

The assay deals with T1, HA-tagged NCOA4 (nuclear receptor coactivator 4) (mouse) (UniProt Q5U4H9).
T1 sequence: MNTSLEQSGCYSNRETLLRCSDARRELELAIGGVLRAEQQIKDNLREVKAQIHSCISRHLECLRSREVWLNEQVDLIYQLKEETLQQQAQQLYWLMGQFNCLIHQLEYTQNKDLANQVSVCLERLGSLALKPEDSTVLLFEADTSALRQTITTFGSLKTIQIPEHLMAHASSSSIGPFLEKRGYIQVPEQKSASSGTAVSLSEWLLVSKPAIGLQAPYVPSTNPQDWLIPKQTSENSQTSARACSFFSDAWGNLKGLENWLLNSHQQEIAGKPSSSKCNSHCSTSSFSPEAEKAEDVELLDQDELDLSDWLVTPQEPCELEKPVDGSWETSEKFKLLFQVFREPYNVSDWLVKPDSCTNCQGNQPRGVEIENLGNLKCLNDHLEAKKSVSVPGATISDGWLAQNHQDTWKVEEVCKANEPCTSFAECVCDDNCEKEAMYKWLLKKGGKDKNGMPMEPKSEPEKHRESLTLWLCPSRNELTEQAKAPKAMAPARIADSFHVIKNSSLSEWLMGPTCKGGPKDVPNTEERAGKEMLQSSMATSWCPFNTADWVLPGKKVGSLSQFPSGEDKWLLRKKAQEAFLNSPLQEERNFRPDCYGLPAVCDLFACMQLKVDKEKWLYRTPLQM
Briefly: co-IP; Flag-PPARγ and HA-NCOA4 (wild type or ∆NCOA4^LxxAA) expressed in cultured VSMCs (MOVAS); NP-40 lysate, anti-HA-tag or anti-Flag-tag, protein A/G PLUS-Agarose, 4 °C overnight, immunoblotting; with or without rosiglitazone (10 μM).

As for “Flag-PPARγ (peroxisome proliferator-activated receptor-γ) (from UniProt P37238 1-505)”, the binding result is reported as “binds”.
